Assay results: publication PMC4187570

Protein sequences, listed by entry. Tags and fused reporters are not part of them.
UniProt Q9Y6K9: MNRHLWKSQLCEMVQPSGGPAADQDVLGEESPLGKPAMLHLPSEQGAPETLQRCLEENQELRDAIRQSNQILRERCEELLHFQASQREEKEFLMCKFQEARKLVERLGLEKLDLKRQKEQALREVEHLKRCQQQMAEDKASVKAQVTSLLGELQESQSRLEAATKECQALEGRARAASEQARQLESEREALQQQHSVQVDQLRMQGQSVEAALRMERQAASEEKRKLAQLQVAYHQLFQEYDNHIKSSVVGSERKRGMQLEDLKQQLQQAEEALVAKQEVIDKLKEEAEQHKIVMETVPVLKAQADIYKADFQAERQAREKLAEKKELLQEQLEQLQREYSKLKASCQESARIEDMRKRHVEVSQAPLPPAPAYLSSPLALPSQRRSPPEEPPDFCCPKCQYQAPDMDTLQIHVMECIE

T1: IKKα (human (endogenous in A549)) (UniProt O15111)
T1 sequence: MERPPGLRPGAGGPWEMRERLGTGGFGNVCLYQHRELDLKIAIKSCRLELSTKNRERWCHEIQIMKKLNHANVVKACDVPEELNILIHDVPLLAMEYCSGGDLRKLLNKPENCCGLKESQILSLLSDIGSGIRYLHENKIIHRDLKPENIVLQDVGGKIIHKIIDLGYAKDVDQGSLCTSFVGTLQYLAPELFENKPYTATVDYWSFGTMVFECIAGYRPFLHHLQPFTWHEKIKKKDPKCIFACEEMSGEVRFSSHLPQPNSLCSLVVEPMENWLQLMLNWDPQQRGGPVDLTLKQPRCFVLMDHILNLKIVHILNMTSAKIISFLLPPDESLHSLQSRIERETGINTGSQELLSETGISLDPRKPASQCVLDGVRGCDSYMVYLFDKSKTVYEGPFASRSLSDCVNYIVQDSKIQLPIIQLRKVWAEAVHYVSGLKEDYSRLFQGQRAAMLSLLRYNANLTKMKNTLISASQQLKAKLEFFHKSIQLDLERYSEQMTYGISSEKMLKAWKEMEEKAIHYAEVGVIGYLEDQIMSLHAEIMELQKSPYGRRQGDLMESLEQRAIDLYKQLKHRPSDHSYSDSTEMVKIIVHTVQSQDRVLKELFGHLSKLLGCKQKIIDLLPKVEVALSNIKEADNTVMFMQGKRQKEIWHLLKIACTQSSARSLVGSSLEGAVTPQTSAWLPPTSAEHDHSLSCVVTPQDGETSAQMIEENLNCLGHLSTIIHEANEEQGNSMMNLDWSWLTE

T2: IKKα (human (endogenous in A549)), O15111
T2 chain: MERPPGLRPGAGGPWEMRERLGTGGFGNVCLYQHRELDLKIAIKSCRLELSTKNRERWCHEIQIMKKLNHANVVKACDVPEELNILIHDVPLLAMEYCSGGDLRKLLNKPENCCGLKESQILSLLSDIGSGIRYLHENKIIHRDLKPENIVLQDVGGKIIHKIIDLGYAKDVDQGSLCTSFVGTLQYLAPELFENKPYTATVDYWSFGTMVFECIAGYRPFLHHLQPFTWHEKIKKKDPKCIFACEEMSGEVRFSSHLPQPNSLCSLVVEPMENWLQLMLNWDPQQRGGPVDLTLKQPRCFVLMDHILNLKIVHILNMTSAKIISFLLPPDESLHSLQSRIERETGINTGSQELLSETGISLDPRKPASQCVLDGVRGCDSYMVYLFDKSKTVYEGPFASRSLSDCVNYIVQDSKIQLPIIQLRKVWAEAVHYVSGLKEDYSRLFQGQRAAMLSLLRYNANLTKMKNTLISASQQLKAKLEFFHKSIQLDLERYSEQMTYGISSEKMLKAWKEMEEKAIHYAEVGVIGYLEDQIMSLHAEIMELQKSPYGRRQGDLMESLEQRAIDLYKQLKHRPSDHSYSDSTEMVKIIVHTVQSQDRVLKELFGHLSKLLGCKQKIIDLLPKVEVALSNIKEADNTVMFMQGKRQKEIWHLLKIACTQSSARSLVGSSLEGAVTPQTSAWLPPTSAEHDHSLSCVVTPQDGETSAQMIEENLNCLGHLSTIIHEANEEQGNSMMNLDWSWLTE


Legend:
Assay in all cases: affinity purification with mass spectrometry; A549 lysate (M-PER), 400 uL with 2 ug agarose-conjugated mouse anti-IKKα or rabbit anti-NEMO antibody, 1 h at room temperature, five PBS washes; SDS-PAGE, in-gel trypsin, LC-MS/MS; scored (FC-A, FC-B, SAINT) against agarose-conjugated isotype IgG and CRAPome controls; resting cells
[1] = biological target: T1, IKKα (human (endogenous in A549))
[2] = biological target: NEMO (NF-kB essential modulator) (human (endogenous in A549)), Q9Y6K9; conditions: remark: other sources report otherwise
[3] = biological target: NEMO (NF-kB essential modulator) (human (endogenous in A549)) (UniProt Q9Y6K9)
[4] = biological target: T2, IKKα (human (endogenous in A549)), …; conditions: remark: other sources report otherwise

Row | Binder | binding [1] | binding [3] | further results
1 | DAZAP1 (protein, UniProt Q96EP5 1-407) MNNSGADEIGKLFVGGLDWSTTQETLRSYFSQYGEVVDCVIMKDKTTNQSRGFGFVKFKDPNCVGTVLASRPHTLDGRNIDPKPCTPRGMQPERTRPKEGWQKGPRSDNSKSNKIFVGGIPHNCGETELREYFKKFGVVTEVVMIYDAEKQRPRGFGFITFEDEQSVDQAVNMHFHDIMGKKVEVKRAEPRDSKSQAPGQPGASQWGSRVVPNAANGWAGQPPPTWQQGYGPQGMWVPAGQAIGGYGPPPAGRGAPPPPPPFTSYIVSTPPGGFPPPQGFPQGYGAPPQFSFGYGPPPPPPDQFAPPGVPPPPATPGAAPLAFPPPPSQAAPDMSKPPTAQPDFPYGQYAGYGQDLSGFGQGFSDPSQQPPSYGGPSVPGSGGPPAGGSGFGRGQNHNVQGFHPYRR | binds | – | –
2 | IKKα, O15111 1-745 (protein) MERPPGLRPGAGGPWEMRERLGTGGFGNVCLYQHRELDLKIAIKSCRLELSTKNRERWCHEIQIMKKLNHANVVKACDVPEELNILIHDVPLLAMEYCSGGDLRKLLNKPENCCGLKESQILSLLSDIGSGIRYLHENKIIHRDLKPENIVLQDVGGKIIHKIIDLGYAKDVDQGSLCTSFVGTLQYLAPELFENKPYTATVDYWSFGTMVFECIAGYRPFLHHLQPFTWHEKIKKKDPKCIFACEEMSGEVRFSSHLPQPNSLCSLVVEPMENWLQLMLNWDPQQRGGPVDLTLKQPRCFVLMDHILNLKIVHILNMTSAKIISFLLPPDESLHSLQSRIERETGINTGSQELLSETGISLDPRKPASQCVLDGVRGCDSYMVYLFDKSKTVYEGPFASRSLSDCVNYIVQDSKIQLPIIQLRKVWAEAVHYVSGLKEDYSRLFQGQRAAMLSLLRYNANLTKMKNTLISASQQLKAKLEFFHKSIQLDLERYSEQMTYGISSEKMLKAWKEMEEKAIHYAEVGVIGYLEDQIMSLHAEIMELQKSPYGRRQGDLMESLEQRAIDLYKQLKHRPSDHSYSDSTEMVKIIVHTVQSQDRVLKELFGHLSKLLGCKQKIIDLLPKVEVALSNIKEADNTVMFMQGKRQKEIWHLLKIACTQSSARSLVGSSLEGAVTPQTSAWLPPTSAEHDHSLSCVVTPQDGETSAQMIEENLNCLGHLSTIIHEANEEQGNSMMNLDWSWLTE | – | – | binding [2]: binds
3 | HNRH3_HUMAN (protein, UniProt P31942 1-346) MDWVMKHNGPNDASDGTVRLRGLPFGCSKEEIVQFFQGLEIVPNGITLTMDYQGRSTGEAFVQFASKEIAENALGKHKERIGHRYIEIFRSSRSEIKGFYDPPRRLLGQRPGPYDRPIGGRGGYYGAGRGSMYDRMRRGGDGYDGGYGGFDDYGGYNNYGYGNDGFDDRMRDGRGMGGHGYGGAGDASSGFHGGHFVHMRGLPFRATENDIANFFSPLNPIRVHIDIGADGRATGEADVEFVTHEDAVAAMSKDKNNMQHRYIELFLNSTPGGGSGMGGSGMGGYGRDGMDNQGGYGSVGRMGMGNNYSGGYGTPDGLGGYGRGGGGSGGYYGQGGMSGGGWRGMY | – | binds | –
4 | Cdc37, Q16543 1-378 (protein) MVDYSVWDHIEVSDDEDETHPNIDTASLFRWRHQARVERMEQFQKEKEELDRGCRECKRKVAECQRKLKELEVAEGGKAELERLQAEAQQLRKEERSWEQKLEEMRKKEKSMPWNVDTLSKDGFSKSMVNTKPEKTEEDSEEVREQKHKTFVEKYEKQIKHFGMLRRWDDSQKYLSDNVHLVCEETANYLVIWCIDLEVEEKCALMEQVAHQTIVMQFILELAKSLKVDPRACFRQFFTKIKTADRQYMEGFNDELEAFKERVRGRAKLRIEKAMKEYEEEERKKRLGPGGLDPVEVYESLPEELQKCFDVKDVQMLQDAISKMDPTDAKYHMQRCIDSGLWVPNSKASEAKEGEEAGPGDPLLEAVPKTGDEKDVSV | – | – | binding [4]: no binding
5 | Cdc37 (protein, UniProt Q16543 1-378) MVDYSVWDHIEVSDDEDETHPNIDTASLFRWRHQARVERMEQFQKEKEELDRGCRECKRKVAECQRKLKELEVAEGGKAELERLQAEAQQLRKEERSWEQKLEEMRKKEKSMPWNVDTLSKDGFSKSMVNTKPEKTEEDSEEVREQKHKTFVEKYEKQIKHFGMLRRWDDSQKYLSDNVHLVCEETANYLVIWCIDLEVEEKCALMEQVAHQTIVMQFILELAKSLKVDPRACFRQFFTKIKTADRQYMEGFNDELEAFKERVRGRAKLRIEKAMKEYEEEERKKRLGPGGLDPVEVYESLPEELQKCFDVKDVQMLQDAISKMDPTDAKYHMQRCIDSGLWVPNSKASEAKEGEEAGPGDPLLEAVPKTGDEKDVSV | – | no binding | –

Second part, led by results:

Row | binding [1] | binding [3] | Binder | further results
6 | binds | – | MYO1E (protein, UniProt Q12965 1-1108) MGSKGVYQYHWQSHNVKHSGVDDMVLLSKITENSIVENLKKRYMDDYIFTYIGSVLISVNPFKQMPYFGEKEIEMYQGAAQYENPPHIYALADNMYRNMIIDRENQCVIISGESGAGKTVAAKYIMSYISRVSGGGTKVQHVKDIILQSNPLLEAFGNAKTVRNNNSSRFGKYFEIQFSPGGEPDGGKISNFLLEKSRVVMRNPGERSFHIFYQLIEGASAEQKHSLGITSMDYYYYLSLSGSYKVDDIDDRREFQETLHAMNVIGIFAEEQTLVLQIVAGILHLGNISFKEVGNYAAVESEEFLAFPAYLLGINQDRLKEKLTSRQMDSKWGGKSESIHVTLNVEQACYTRDALAKALHARVFDFLVDSINKAMEKDHEEYNIGVLDIYGFEIFQKNGFEQFCINFVNEKLQQIFIELTLKAEQEEYVQEGIRWTPIEYFNNKIVCDLIENKVNPPGIMSILDDVCATMHAVGEGADQTLLQKLQMQIGSHEHFNSWNQGFIIHHYAGKVSYDMDGFCERNRDVLFMDLIELMQSSELPFIKSLFPENLQADKKGRPTTAGSKIKKQANDLVSTLMKCTPHYIRCIKPNETKKPRDWEESRVKHQVEYLGLKENIRVRRAGYAYRRIFQKFLQRYAILTKATWPSWQGEEKQGVLHLLQSVNMDSDQFQLGRSKVFIKAPESLFLLEEMRERKYDGYARVIQKSWRKFVARKKYVQMREEASDLLLNKKERRRNSINRNFIGDYIGMEEHPELQQFVGKREKIDFADTVTKYDRRFKGVKRDLLLTPKCLYLIGREKVKQGPDKGLVKEVLKRKIEIERILSVSLSTMQDDIFILHEQEYDSLLESVFKTEFLSLLAKRYEEKTQKQLPLKFSNTLELKLKKENWGPWSAGGSRQVQFHQGFGDLAVLKPSNKVLQVSIGPGLPKNSRPTRRNTTQNTGYSSGTQNANYPVRAAPPPPGYHQNGVIRNQYVPYPHAPGSQRSNQKSLYTSMARPPLPRQQSTSSDRVSQTPESLDFLKVPDQGAAGVRRQTTSRPPPAGGRPKPQPKPKPQVPQCKALYAYDAQDTDELSFNANDIIDIIKEDPSGWWTGRLRGKQGLFPNNYVTKI | –
7 | binds | – | TMED10 (protein, UniProt P49755 32-219) ISFHLPINSRKCLREEIHKDLLVTGAYEISDQSGGAGGLRSHLKITDSAGHILYSKEDATKGKFAFTTEDYDMFEVCFESKGTGRIPDQLVILDMKHGVEAKNYEEIAKVEKLKPLEVELRRLEDLSESIVNDFAYMKKREEEMRDTNESTNTRVLYFSIFSMFCLIGLATWQVFYLRRFFKAKKLIE | –
8 | – | binds | RBM14 (protein, UniProt Q96PK6 1-669) MKIFVGNVDGADTTPEELAALFAPYGTVMSCAVMKQFAFVHMRENAGALRAIEALHGHELRPGRALVVEMSRPRPLNTWKIFVGNVSAACTSQELRSLFERRGRVIECDVVKDYAFVHMEKEADAKAAIAQLNGKEVKGKRINVELSTKGQKKGPGLAVQSGDKTKKPGAGDTAFPGTGGFSATFDYQQAFGNSTGGFDGQARQPTPPFFGRDRSPLRRSPPRASYVAPLTAQPATYRAQPSVSLGAAYRAQPSASLGVGYRTQPMTAQAASYRAQPSVSLGAPYRGQLASPSSQSAAASSLGPYGGAQPSASALSSYGGQAAAASSLNSYGAQGSSLASYGNQPSSYGAQAASSYGVRAAASSYNTQGAASSLGSYGAQAASYGAQSAASSLAYGAQAASYNAQPSASYNAQSAPYAAQQAASYSSQPAAYVAQPATAAAYASQPAAYAAQATTPMAGSYGAQPVVQTQLNSYGAQASMGLSGSYGAQSAAAATGSYGAAAAYGAQPSATLAAPYRTQSSASLAASYAAQQHPQAAASYRGQPGNAYDGAGQPSAAYLSMSQGAVANANSTPPPYERTRLSPPRASYDDPYKKAVAMSKRYGSDRRLAELSDYRRLSESQLSFRRSPTKSSLDYRRLPDAHSDYARYSGSYNDYLRAAQMHSGYQRRM | –

Results are given in words; binding and its absence hold for the method and conditions named. Binding seen in cells or lysates may run through a third protein. A yes stands for co-enrichment or nearness to the bait. Other partners may have been found. For some assays here: A no says only that the protein was not detected with the bait.
